Paper PMC9481612, “Molecular architecture of the augmin complex” (Nature Communications, 2022)

The chains behind the UniProt entries cited, without tags or fusion partners. Where a name states a change or a piece, a line headed by the entry shows the natural chain unless it says otherwise.
UniProt Q9H6D7: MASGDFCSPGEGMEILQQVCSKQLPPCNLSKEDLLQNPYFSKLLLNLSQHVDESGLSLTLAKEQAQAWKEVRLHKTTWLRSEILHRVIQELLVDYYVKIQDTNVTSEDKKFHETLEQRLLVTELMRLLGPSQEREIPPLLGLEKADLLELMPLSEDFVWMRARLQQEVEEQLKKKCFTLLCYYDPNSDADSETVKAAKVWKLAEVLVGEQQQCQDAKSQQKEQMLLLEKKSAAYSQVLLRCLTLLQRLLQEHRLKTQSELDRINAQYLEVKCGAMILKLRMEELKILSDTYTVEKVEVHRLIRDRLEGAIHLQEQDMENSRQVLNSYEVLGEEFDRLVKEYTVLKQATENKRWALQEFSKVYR

Columns and labels:
HAUS8 (human) [1] = target: T1, HAUS8 (human) (UniProt Q9BT25); test: cross-linking; purified augmin^ΔH6C with DSSO at 250:1, 500:1, 750:1 and 1000:1 molar ratio, 1 h on ice; trypsin in gel or in solution, LC-MS/MS, MetaMorpheus, 1% FDR; both purified
T1 sequence: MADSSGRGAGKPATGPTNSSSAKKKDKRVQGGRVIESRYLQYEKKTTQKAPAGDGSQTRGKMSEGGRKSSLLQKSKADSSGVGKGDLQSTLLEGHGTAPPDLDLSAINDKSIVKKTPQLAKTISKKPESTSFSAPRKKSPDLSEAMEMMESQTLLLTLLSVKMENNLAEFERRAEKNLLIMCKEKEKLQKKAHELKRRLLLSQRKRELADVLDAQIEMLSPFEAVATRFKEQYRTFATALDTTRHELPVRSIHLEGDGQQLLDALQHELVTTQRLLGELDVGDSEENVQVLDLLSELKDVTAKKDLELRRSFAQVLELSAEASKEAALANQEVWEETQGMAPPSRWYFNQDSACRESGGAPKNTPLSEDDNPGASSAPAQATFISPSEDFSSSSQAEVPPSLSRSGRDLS

HAUS2 (human) [2] = target: T2, HAUS2 (human) (UniProt Q9NVX0); test: as above
T2 sequence: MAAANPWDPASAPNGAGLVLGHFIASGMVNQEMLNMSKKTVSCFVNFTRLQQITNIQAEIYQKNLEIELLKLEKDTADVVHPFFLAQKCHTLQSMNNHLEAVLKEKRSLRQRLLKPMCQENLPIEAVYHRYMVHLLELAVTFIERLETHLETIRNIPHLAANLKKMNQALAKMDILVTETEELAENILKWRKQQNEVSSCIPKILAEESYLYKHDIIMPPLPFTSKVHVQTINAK

HAUS8 (human) [3] = target: T1, HAUS8 (human); test: cryo-EM structure; augmin^ΔH6C octamer on thin amorphous carbon film, Volta Phase Plate; head, neck and legs refined separately to 5–7 Å; subunits placed by fitting AlphaFold2/ColabFold models into the maps; both purified
HAUS2 (human) [4] = target: T2, HAUS2 (human); test: as above
HAUS2 (human) [5] = target: T2, HAUS2 (human); test: co-purification; holo-complex, eight subunits co-expressed in High5 cells; cleared lysate on StrepII-Trap (tag on H2), eluted with D-desthiobiotin, then Superose 6; SDS-PAGE
HAUS7 (human) [6] = test: cryo-EM structure; augmin^ΔH6C octamer on thin amorphous carbon film, Volta Phase Plate; head, neck and legs refined separately to 5–7 Å; subunits placed by fitting AlphaFold2/ColabFold models into the maps; both purified
HAUS4 (human) [7] = target: HAUS4 (human) (UniProt Q9H6D7); test: cross-linking; purified augmin^ΔH6C with DSSO at 250:1, 500:1, 750:1 and 1000:1 molar ratio, 1 h on ice; trypsin in gel or in solution, LC-MS/MS, MetaMorpheus, 1% FDR; both purified
HAUS4 (human) [8] = target: HAUS4 (human) (UniProt Q9H6D7); test: cryo-EM structure; augmin^ΔH6C octamer on thin amorphous carbon film, Volta Phase Plate; head, neck and legs refined separately to 5–7 Å; subunits placed by fitting AlphaFold2/ColabFold models into the maps; both purified
HAUS7 (human) [9] = test: cross-linking; purified augmin^ΔH6C with DSSO at 250:1, 500:1, 750:1 and 1000:1 molar ratio, 1 h on ice; trypsin in gel or in solution, LC-MS/MS, MetaMorpheus, 1% FDR; both purified

## HAUS7 (human)
HAUS8 (human) [1]
  binding: binds
HAUS2 (human) [2]
  binding: binds
HAUS8 (human) [3]
  binding: binds
HAUS2 (human) [4]
  binding: binds
HAUS2 (human) [5]
  binding: binds

B1: HAUS6 N-terminal region (a.a. 1–432) (domain or fragment, UniProt Q7Z4H7 1-432)
chain: MSSASVTAFEKEHLWMYLQALGFEPGPATIACGKIVSHTHLGVNMFDKLNRDAFHIISYFLFQVLDQSLTKEVFKFCWPPFDQKSDTEFRKHCCEWIKRISGECGSSFPQVVGSLFLSPGGPKFIHLMYHFARFVAMKYIKSNSKNSSHHFVETFNIKPQDLHKCIARCHFARSRFLQILQRQDCVTQKYQENAQLSVKQVRNLRSECIGLENQIKKMEPYDDHSNMEEKIQKVRSLWASVNETLMFLEKEREVVSSVLSLVNQYALDGTNVAINIPRLLLDKIEKQMFQLHIGNVYEAGKLNLLTVIQLLNEVLKVMKYERCQADQARLTVDLHYLEKETKFQKERLSDLKHMRYRIKDDLTTIRHSVVEKQGEWHKKWKEFLGLSPFSLIKGWTPSVDLLPPMSPLSFDPASEEVYAKSILCQYPASLPD
HAUS7 (human) [6]
  binding: binds

B2: HAUS1 (protein, UniProt Q96CS2 1-278)
chain: MEPQEERETQVAAWLKKIFGDHPIPQYEVNPRTTEILHHLSERNRVRDRDVYLVIEDLKQKASEYESEAKYLQDLLMESVNFSPANLSSTGSRYLNALVDSAVALETKDTSLASFIPAVNDLTSDLFRTKSKSEEIKIELEKLEKNLTATLVLEKCLQEDVKKAELHLSTERAKVDNRRQNMDFLKAKSEEFRFGIKAAEEQLSARGMDASLSHQSLVALSEKLARLKQQTIPLKKKLESYLDLMPNPSLAQVKIEEAKRELDSIEAELTRRVDMMEL
HAUS4 (human) [7]
  binding: binds
HAUS4 (human) [8]
  binding: binds

B3: HAUS5 (protein, UniProt O94927 1-633)
chain: MELAQEARELGCWAVEEMGVPVAARAPESTLRRLCLGQGADIWAYILQHVHSQRTVKKIRGNLLWYGHQDSPQVRRKLELEAAVTRLRAEIQELDQSLELMERDTEAQDTAMEQARQHTQDTQRRALLLRAQAGAMRRQQHTLRDPMQRLQNQLRRLQDMERKAKVDVTFGSLTSAALGLEPVVLRDVRTACTLRAQFLQNLLLPQAKRGSLPTPHDDHFGTSYQQWLSSVETLLTNHPPGHVLAALEHLAAEREAEIRSLCSGDGLGDTEISRPQAPDQSDSSQTLPSMVHLIQEGWRTVGVLVSQRSTLLKERQVLTQRLQGLVEEVERRVLGSSERQVLILGLRRCCLWTELKALHDQSQELQDAAGHRQLLLRELQAKQQRILHWRQLVEETQEQVRLLIKGNSASKTRLCRSPGEVLALVQRKVVPTFEAVAPQSRELLRCLEEEVRHLPHILLGTLLRHRPGELKPLPTVLPSIHQLHPASPRGSSFIALSHKLGLPPGKASELLLPAAASLRQDLLLLQDQRSLWCWDLLHMKTSLPPGLPTQELLQIQASQEKQQKENLGQALKRLEKLLKQALERIPELQGIVGDWWEQPGQAALSEELCQGLSLPQWRLRWVQAQGALQKLCS
HAUS7 (human) [9]
  binding: binds

B4: HAUS3 (natural protein, human, UniProt Q68CZ6 1-603, looked up)
chain: MSCGNEFVETLKKIGYPKADNLNGEDFDWLFEGVEDESFLKWFCGNVNEQNVLSERELEAFSILQKSGKPILEGAALDEALKTCKTSDLKTPRLDDKELEKLEDEVQTLLKLKNLKIQRRNKCQLMASVTSHKSLRLNAKEEEATKKLKQSQGILNAMITKISNELQALTDEVTQLMMFFRHSNLGQGTNPLVFLSQFSLEKYLSQEEQSTAALTLYTKKQFFQGIHEVVESSNEDNFQLLDIQTPSICDNQEILEERRLEMARLQLAYICAQHQLIHLKASNSSMKSSIKWAEESLHSLTSKAVDKENLDAKISSLTSEIMKLEKEVTQIKDRSLPAVVRENAQLLNMPVVKGDFDLQIAKQDYYTARQELVLNQLIKQKASFELLQLSYEIELRKHRDIYRQLENLVQELSQSNMMLYKQLEMLTDPSVSQQINPRNTIDTKDYSTHRLYQVLEGENKKKELFLTHGNLEEVAEKLKQNISLVQDQLAVSAQEHSFFLSKRNKDVDMLCDTLYQGGNQLLLSDQELTEQFHKVESQLNKLNHLLTDILADVKTKRKTLANNKLHQMEREFYVYFLKDEDYLKDIVENLETQSKIKAVSLED
notes: HAUS3, human; 603; also called H3; source: High5 insect cells, co-infected with baculoviruses; purified as part of the augmin octamer (StrepII-Trap, Superose 6)
HAUS4 (human) [7]
  binding: binds

Results are given in words; binding and its absence hold for the method and conditions named. Binding calls can cover weak binding; strength is not graded here. For some of these results: Binding seen in cells or lysates may run through a third protein.
